The list shows a part of the results. The main result of the screen is listed elsewhere. These columns were measured beside it and carry no call. The list favours compounds with an active or inconclusive main result. Potencies come from curve fits of mixed quality, noted in brackets.
Assay: qHTS Assay for Lipid Storage Modulators in Drosophila S3 Cells;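 for cell number change: cells counted by Cell Tracker Red CMTPX staining in the red channel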
Details: BODIPY lipid droplet fluorescence, 18-24 h; for cell number change: measured here: cell count max response, cells fed with added oleic acid
In short: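 Laser-scanning cytometry quantifies lipid droplet accumulation (500–530 nm total intensity; droplet/cell object ratio) in oleic acid-fed (400 uM added) Drosophila S3 cells treated with a concentration series. 20 uM Triacsin C defined 100% inhibition.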

[1] = measured here: cell number channel AC50, cells fed with added oleic acid
[2] = measured here: lipid fluorescence (Fed channel) AC50, cells fed with added oleic acid

Compound | cell number change [%] | AC50 [1] | AC50 [2]
COCCN(CC(=O)Nc1cccc(C)c1C)C(=O)Cn1cnc2ccccc2c1=O | -38.8 | 6.51 µM [falling, full curve, poor fit] | 0.58 µM [falling, single point]
COc1ccc(CNS(=O)(=O)CCNC(=O)c2ccc(OC)cc2)cc1 | -9.78 | – | 6.51 µM [falling, single point]
C=CCSc1nc2c(cc1C#N)CCC2 | – | – | 6.51 µM [rising, single point]
Cc1cc(C)n(CC(=O)Nc2ccc(N3CCOCC3)c(Cl)c2)c(=O)c1C#N | 12.6 | – | –
O=C(O)c1[nH]c2ccc([N+](=O)[O-])cc2c1-c1ccccc1 | -33.2 | – | 6.51 µM [falling, full curve, poor fit]
C=CCn1c(C)cc(C(=O)COC(=O)c2cncc(Br)c2)c1C | 8.14 | – | 0.184 µM [falling, full curve, poor fit]
CCOC(=O)CC1=CC(=O)Nc2ccccc2N1 | 8.36 | – | 2.06 µM [rising, full curve]
O=C(NCc1ccc2c(c1)OCO2)c1ccc(-c2ccc(Cl)cc2)o1 | 35.6 | 7.31 µM [rising, partial curve, poor fit] | 1.16 µM [rising, single point]
COC(=O)/C(C#N)=C/c1ccc(C)o1 | -9.15 | 7.31 µM [falling, single point] | 2.06 µM [falling, partial curve]
CNC(=O)CNC(=O)Nc1ccc(Cl)c(Cl)c1 | -23.7 | 3.26 µM [falling, single point] | –
CC(=O)Oc1ccc(C2C3=C(CC(C)(C)CC3=O)Nc3cc4c(cc32)OCCO4)cc1 (centres undefined) | 2.33 | – | 0.259 µM [falling, full curve]
CCOCCCNC(=O)C(c1ccc(Cl)cc1)N1CCC2(CC1)OCCO2 (centres undefined) | -0.317 | – | 3.66 µM [falling, single point]
COC(=O)c1c(C)nc2ccccc2c1-c1ccccc1 | 6.82 | – | 4.11 µM [rising, full curve]
COc1ccc(-c2nnc(SCC(=O)NNC(=O)Cc3ccccc3)n2C)cc1OC | 21.8 | – | 0.184 µM [rising, full curve, poor fit]
CCCCN(C)CCNC(=O)CN1C(=O)CSc2ccc(S(=O)(=O)N3CCCC3)cc21 | 8.9 | 0.058 µM [rising, full curve, poor fit] | –
Cc1nc2c(ccc3nc(NC(=O)c4ccc5c(c4)OCCO5)sc32)s1 | -63.9 | 1.03 µM [falling, full curve, poor fit] | 32.6 µM [falling, partial curve, poor fit]
Cc1cccc2sc(N(CCN(C)C)C(=O)c3ccc4ccccc4c3)nc12 | -32.6 | 32.6 µM [falling, single point] | 32.6 µM [rising, single point]
COc1ccc(CNC(=O)c2sccc2-c2ccccc2)cc1OC | -8.09 | – | 6.51 µM [falling, single point]
Cc1cc(C)cc(NC(=O)CCn2c(=S)[nH]c3ccccc3c2=O)c1 | 98.6 | 18.4 µM [rising, partial curve] | –

Compound | cell number change [%] | AC50 [1] | AC50 [2]
COCCCn1c(=O)/c(=C\c2ccccc2OC(F)F)s/c1=C(/C#N)C(=O)NCCOC | – | 5.8 µM [rising, partial curve] | –
COc1cc(C)nc(N2CCCC(C(=O)NC3CCC(C)CC3)C2)n1 (centres undefined) | 17.8 | – | 0.517 µM [rising, full curve, poor fit]
O=S(=O)(NCCc1ccncc1)c1ccccc1 | 11.3 | – | 6.51 µM [rising, single point]
CC(C(=O)NC(=O)NC1CCCCC1)N1CCN(c2ccccn2)CC1 (centres undefined) | -10.9 | – | 2.91 µM [falling, full curve, poor fit]
COCCN1Cc2cccc(C(=O)Nc3ccc(C)c(C)c3)c2C1=O | 3.28 | – | –
CC(C)C(=O)Nc1ccc(C(=O)N2CCN(C(=O)c3ccco3)CC2)cc1 | – | – | 6.51 µM [falling, partial curve]
Cc1ccc(S(=O)(=O)N(c2nc(N(C)C)nc(N(C)C)n2)n2cnnc2)cc1 | 0.234 | – | 9.2 µM [rising, partial curve]
CCc1cc(C(=O)NCC(c2cccs2)N2CCOCC2)sc1C (centres undefined) | 32.9 | 11.6 µM [rising, partial curve, poor fit] | 9.2 µM [rising, partial curve, poor fit]
COc1ccc(S(=O)(=O)N2CCC(C(=O)N[C@H](C(=O)NC3CCCC3)C(C)C)CC2)cc1 | – | 7.31 µM [falling, single point] | 6.51 µM [falling, single point]
COc1ccc(OC)c(NC(=O)COC(=O)CSc2ccc(Cl)cc2)c1 | -9.95 | – | 1.03 µM [falling, partial curve]
C=CCNC(=O)COC(=O)c1cc(S(=O)(=O)N2CCCCC2)ccc1Cl | 53.9 | 1.3 µM [rising, full curve, poor fit] | 0.116 µM [rising, full curve]
CC1CCc2sc3nc(N4CCN(CCO)CC4)n4ncnc4c3c2C1 (centres undefined) | -19.5 | – | –
C=C[C@@](C)(O)CC[C@@H]1[C@@]2(C)CCCC(C)(C)[C@@H]2CC[C@@]1(C)O | -27.3 | – | 16.4 µM [falling, single point]
CCS(=O)(=O)N1CCN(Cc2ccc([N+](=O)[O-])cc2)CC1 | 13.7 | – | –
CN(c1ccc(OC(=O)CC2OC(=O)c3ccccc32)cc1)S(=O)(=O)c1ccccc1 (centres undefined) | -20.3 | – | 14.6 µM [rising, partial curve]
Cn1c(Cn2nnc(-c3ccccc3)n2)nnc1SCc1ccccc1Cl | 14.3 | 8.2 µM [rising, partial curve, poor fit] | –
CC(=O)N(C)c1ccc(NC(=O)c2cnn(C)c2)cc1 | -67 | 25.9 µM [falling, partial curve, poor fit] | –
Cc1ccc(C(=O)NC(=S)Nc2cccc(NC(=O)c3ccccc3)c2)cc1[N+](=O)[O-] | -41.1 | 29.1 µM [falling, single point] | 23.1 µM [falling, single point]
COc1ccc(NS(=O)(=O)c2cc(NC(=O)c3ccc(=O)[nH]c3)ccc2N2CCCC2)cc1 | -15.6 | – | 29.1 µM [falling, partial curve, poor fit]

Two of the compounds above, as labelled records.
CCc1cc(C(=O)NCC(c2cccs2)N2CCOCC2)sc1C (centres undefined)
  cell number change [%]: 32.9
  AC50 [1]: 11.6 µM [rising, partial curve, poor fit]
  AC50 [2]: 9.2 µM [rising, partial curve, poor fit]
COc1ccc(S(=O)(=O)N2CCC(C(=O)N[C@H](C(=O)NC3CCCC3)C(C)C)CC2)cc1
  AC50 [1]: 7.31 µM [falling, single point]
  AC50 [2]: 6.51 µM [falling, single point]

Later entries:

Compound | cell number change [%] | AC50 [1] | AC50 [2]
Cc1ccc(CNC(=O)CCCc2ccccc2)cc1 | 38.9 | 18.4 µM [rising, partial curve] | –
COc1ccc(C)cc1NC(=O)CN(C)S(=O)(=O)c1cc(C)ccc1OC | 45.4 | 2.31 µM [rising, partial curve] | 13 µM [rising, partial curve, poor fit]
CCOC(=O)c1sc(NC(=O)CSc2nnc(Cc3ccccc3)o2)c(C#N)c1C | – | 2.31 µM [rising, partial curve] | 2.91 µM [rising, partial curve]
COc1ccc(NC(=O)C(=O)c2cn(CC(=O)N3CCCC3)c3ccccc23)cc1OC | -7.89 | 6.51 µM [falling, single point] | –
CC(C)Cc1ccc(C(C)C(=O)Nc2ccccc2O)cc1 (centres undefined) | -37.5 | 0.0731 µM [falling, full curve] | 0.00461 µM [falling, full curve, poor fit]
O=C(CSc1ccc(Cl)cc1)Nc1ccc(N2CCN(C(=O)c3ccc(Cl)cc3)CC2)cc1 | -13.5 | 0.731 µM [falling, single point] | –
COc1ccc(S(=O)(=O)n2ccc(C(C)Oc3ccc(-c4ccccc4)c(F)c3)n2)cc1 (centres undefined) | 89.7 | 29.1 µM [rising, single point] | 29.1 µM [rising, single point]
C[C@@H](NC(=O)CN1C(=O)c2ccccc2S1(=O)=O)c1ccccc1 | 5.73 | – | 29.1 µM [falling, single point]
CC(C)CC(=O)Nc1ccc(-c2nc3ccccc3c(=O)o2)cc1 | -9.55 | – | –
CC1CC(=O)N(CC(=O)Nc2ccc(F)cc2)c2ccccc2S1(=O)=O (centres undefined) | -9.54 | – | 29.1 µM [falling, single point]
Cc1ccc(C(=O)Nc2cccc(-c3ccc(N4CCOCC4)nn3)c2)cc1C | – | – | 0.731 µM [rising, partial curve]
O=C(COC(=O)c1cc[n+]([O-])cc1)Nc1ccc(Cl)cc1C(F)(F)F | – | – | 6.51 µM [falling, single point]
O=C(Nc1cc2c(cc1Cl)OCCCO2)c1ccco1 | 5.24 | – | 0.164 µM [falling, partial curve, poor fit]
CCCCC1C(=O)N(c2ccccc2)N(c2ccc(O)cc2)C1=O (centres undefined) | -75.9 | 29.1 µM [falling, partial curve, poor fit] | 29.1 µM [falling, single point]
O=C1Nc2ccccc2C12OC1CCCCC1O2 (centres undefined) | -1.75 | – | 1.16 µM [rising, single point]
Cc1nc(NC(=O)c2ccco2)sc1-c1csc(Nc2ccc(Cl)cc2)n1 | -25.9 | – | 25.9 µM [falling, single point]
CCN(CC)CCCN1C(=O)C(=O)/C(=C(/O)c2ccc3c(c2)CC(C)O3)C1c1ccncc1 (centres undefined) | -0.406 | – | 5.8 µM [falling, full curve]
Cc1ccc(C)c(S(=O)(=O)N2CCN(CC(=O)NC(C)c3ccccc3)CC2)c1 (centres undefined) | -5.36 | – | 29.1 µM [falling, single point]

Structures shown so far that contain an aryl thioether with sulfur outside any ring (6):
Compound | cell number change [%] | AC50 [1] | AC50 [2]
C=CCSc1nc2c(cc1C#N)CCC2 | – | – | 6.51 µM [rising, single point]
COc1ccc(-c2nnc(SCC(=O)NNC(=O)Cc3ccccc3)n2C)cc1OC | 21.8 | – | 0.184 µM [rising, full curve, poor fit]
COc1ccc(OC)c(NC(=O)COC(=O)CSc2ccc(Cl)cc2)c1 | -9.95 | – | 1.03 µM [falling, partial curve]
Cn1c(Cn2nnc(-c3ccccc3)n2)nnc1SCc1ccccc1Cl | 14.3 | 8.2 µM [rising, partial curve, poor fit] | –
CCOC(=O)c1sc(NC(=O)CSc2nnc(Cc3ccccc3)o2)c(C#N)c1C | – | 2.31 µM [rising, partial curve] | 2.91 µM [rising, partial curve]
O=C(CSc1ccc(Cl)cc1)Nc1ccc(N2CCN(C(=O)c3ccc(Cl)cc3)CC2)cc1 | -13.5 | 0.731 µM [falling, single point] | –
